Experimental data: PubChem BioAssay AID504764 (Drosophila RNAi Screening Center, 2011)

- Test: 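Genes whose knock-down alters Notch-dependent transcription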 (primary screen)
- Cell system: Drosophila Kc167 cells
- Reagents: long dsRNA against Drosophila genes
- Duration: about 5 days (4 days dsRNA, then 24 h after transfection)
- Challenge: transfection of constitutively active membrane-tethered Notch lacking the extracellular domain, read 24 h later
- Detection: 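Light from a Notch-responsive E(spl)m3 luciferase reporter under active Notch, with control-promoter and no-Notch reporter wells to normalise; raw counts from paired wells a and b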
- Scale: induced reporter light, run 1, well a and induced reporter light, run 1, well b: higher = more light from the Notch target reporter with active Notch; control promoter light, run 1, well a and control promoter light, run 1, well b: higher = more light from the viral control promoter (cell number, transfection, viability); uninduced reporter light, run 1, well a: higher = more light from the Notch target reporter without active Notch
- Rule for the call: 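Hit if the duplicate-averaged log2 ratio of induced to control-promoter light gives a plate-wise z beyond ±2, or induced to uninduced beyond ±1.8; weak-control or discordant-duplicate wells dropped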
- Meaning of the calls: active = modifier hit (raised or lowered Notch signal); inactive = not a hit
The screen tested about 22,000 reagents; shown is an unselected part of those that have a named target and a result. Over the whole deposit, 403 (1.9%) were called active. 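Unnormalised raw counts per well; ratio z-scores behind the hit calls and whether each hit raises or lowers signal are not deposited.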 Entries without a mark were called inactive. Names joined by + are all predicted targets of the reagent. Not stated in the record: the amount of reagent.

predicted target | amplicon | induced reporter light, run 1, well a | induced reporter light, run 1, well b | control promoter light, run 1, well a | control promoter light, run 1, well b | uninduced reporter light, run 1, well a
Cpr73D | DRSC11084 | 98830 | 1.38e5 | 81680 | 81530 | 9010
chrb | DRSC11335 | 1.30e5 | 92735 | 66120 | 25100 | 8825
ppk3 | DRSC04275 | 1.76e5 (active) | 1.86e5 | 1.30e5 | 1.30e5 | 12165
B52 | DRSC14121 | 1.82e5 | 1.43e5 | 91900 | 97590 | 11195
Culd | DRSC10262 | 1.14e5 | 98580 | 94845 | 44095 | 10970
CG42518 + MED9 | DRSC06917 | 45965 | 49150 | 66655 | 62425 | 3495
Jon65Aiv | DRSC10644 | 1.35e5 | 1.53e5 | 2.04e5 | 1.77e5 | 7165
ND-B8 | DRSC00449 | 1.43e5 | 1.54e5 | 1.87e5 | 1.53e5 | 9970
Hmgcl | DRSC02051 | 55935 | 58510 | 56740 | 53415 | 4310
ppk21 | DRSC14466 | 1.38e5 | 1.36e5 | 1.76e5 | 1.68e5 | 11160
zormin | DRSC07969 | 2.30e5 | 2.23e5 | 2.65e5 | 2.29e5 | 18978
zormin | DRSC08210 | 1.00e5 | 1.22e5 | 2.38e5 | 1.90e5 | 9665
zormin | DRSC08212 | 85040 | 99230 | 1.81e5 | 1.98e5 | 9138
zormin | DRSC08213 | 1.43e5 | 1.30e5 | 1.44e5 | 1.64e5 | 6060
zormin | DRSC08297 | 1.19e5 | 1.29e5 | 2.02e5 | 2.29e5 | 7900
zormin | DRSC08571 | 20960 | 23405 | 37380 | 41405 | 5455
Mtp | DRSC03216 | 2.21e5 | 2.63e5 | 2.06e5 | 2.26e5 | 15020
CG7173 | DRSC11812 | 7930 | 5720 | 6942 | 5425 | 3860
CG12439 | DRSC02168 | 1.26e5 | 1.66e5 | 65105 | 93915 | 19550
CG4822 | DRSC00669 | 1.58e5 | 2.20e5 | 2.19e5 | 2.23e5 | 17885
Nup154 | DRSC03384 | 1.64e5 | 2.18e5 | 1.57e5 | 1.83e5 | 14800
CG10694 | DRSC14263 | 1.54e5 | 1.42e5 | 2.08e5 | 1.83e5 | 13360
rt | DRSC11391 | 1.10e5 | 1.05e5 | 1.86e5 | 1.41e5 | 7040
Cpr30F | DRSC02908 | 3.14e5 | 2.51e5 | 2.96e5 | 2.80e5 | 19030
SmE | DRSC02680 | 40055 | 47615 | 36070 | 42860 | 3850
CG12123 | DRSC17818 | 1.89e5 | 1.37e5 | 1.93e5 | 1.48e5 | 12210
Myb | DRSC20260 | 68830 (active) | 63710 | 77945 | 88245 | 10240
Vm26Ab | DRSC03473 | 1.70e5 | 1.83e5 | 2.36e5 | 1.68e5 | 7935

Next part (6 carried over from the part before).
predicted target | amplicon | induced reporter light, run 1, well a | induced reporter light, run 1, well b | control promoter light, run 1, well a | control promoter light, run 1, well b | uninduced reporter light, run 1, well a
rt | DRSC11391 | 1.10e5 | 1.05e5 | 1.86e5 | 1.41e5 | 7040
Cpr30F | DRSC02908 | 3.14e5 | 2.51e5 | 2.96e5 | 2.80e5 | 19030
SmE | DRSC02680 | 40055 | 47615 | 36070 | 42860 | 3850
CG12123 | DRSC17818 | 1.89e5 | 1.37e5 | 1.93e5 | 1.48e5 | 12210
Myb | DRSC20260 | 68830 (active) | 63710 | 77945 | 88245 | 10240
Vm26Ab | DRSC03473 | 1.70e5 | 1.83e5 | 2.36e5 | 1.68e5 | 7935
CG34342 | DRSC09756 | 2.15e5 | 2.01e5 | 2.18e5 | 1.64e5 | 9788
tgo | DRSC17077 | 1.05e5 | 1.08e5 | 48360 | 48165 | 9720
CG13159 | DRSC06283 | 92940 | 98790 | 1.52e5 | 1.30e5 | 9355
AstC-R2 | DRSC10051 | 1.78e5 | 1.86e5 | 2.77e5 | 1.89e5 | 10880
ProtA | DRSC03372 | 1.32e5 | 1.73e5 | 1.52e5 | 1.70e5 | 12635
Mur18B | DRSC20063 | 48015 | 42680 | 36260 | 25585 | 5078
CG15923 | DRSC15129 | 1.91e5 | 1.67e5 | 2.24e5 | 2.36e5 | 11315
Or33b | DRSC03387 | 1.61e5 | 1.74e5 | 1.64e5 | 1.69e5 | 16145
sunz | DRSC12559 | 57200 | 56210 | 47975 | 42080 | 3620
CG14712 | DRSC14935 | 27330 | 34335 | 31720 | 30490 | 4178
Coq6 | DRSC03040 | 1.66e5 | 1.45e5 | 1.31e5 | 1.33e5 | 15025
Ns1 | DRSC15529 | 1.22e5 | 1.17e5 | 1.40e5 | 1.35e5 | 7450
Naa80 | DRSC16429 | 62945 | 95360 | 1.04e5 | 72970 | 4505
Cpr56F | DRSC07326 | 1.42e5 | 1.09e5 | 1.38e5 | 1.60e5 | 8575
CG18731 | DRSC15377 | 1.19e5 | 1.21e5 | 1.54e5 | 1.70e5 | 11690
CanB | DRSC18449 | 1.59e5 | 1.97e5 | 2.71e5 | 2.86e5 | 11055
CG12516 | DRSC14524 | 1.42e5 | 1.17e5 | 1.78e5 | 1.81e5 | 10000
spict | DRSC02157 | 2.23e5 | 2.37e5 | 1.79e5 | 1.97e5 | 15425
Polr1B | DRSC00780 | 1.03e5 | 1.02e5 | 1.34e5 | 1.29e5 | 6585
CG42523 | DRSC00251 | 1.90e5 | 1.58e5 | 2.03e5 | 1.87e5 | 12650
eEF1delta | DRSC02790 | 1.65e5 | 1.54e5 | 1.43e5 | 1.40e5 | 12570
CG15293 | DRSC01919 | 1.44e5 | 1.33e5 | 1.51e5 | 1.72e5 | 12100
